Data reported in the supplement of paper PMC6078165.

Tested on: MDAMB436
Assay: relative JC-1 red fluorescence (viability) vs pre-drug, coculture with fibroblast (fraction); higher = more viable cancer cells
Conditions: 100 µM
Procedure: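 JC-1 labelled TNBC cells cocultured 1:1 (1,500 cells each) with CellTrace Violet stained primary or stromal fibroblasts in 384-well plates in FluoroBrite medium, treated with one of 42 anticancer drugs at 0.1, 1, 10 or 100 uM. JC-1 red fluorescence (mitochondrial integrity in cancer cells only) was read by plate reader every 8 h for 72 h. Values are normalised to each well's pre-drug value. The stock of one drug was tenfold lower, so its dose labels may be too high.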

COc1cc([C@@H]2c3cc4c(cc3[C@@H](O[C@@H]3O[C@@H]5CO[C@@H](c6cccs6)O[C@H]5[C@H](O)[C@H]3O)[C@H]3COC(=O)[C@H]23)OCO4)cc(OC)c1O [Teniposide]
relative JC-1 red fluorescence
Conditions	8 h	16 h	24 h	32 h	40 h	48 h	56 h	64 h	72 h
coculture fibroblast: C12385	0.881	0.874	0.891	0.859	0.87	0.898	0.931	0.935	0.944
coculture fibroblast: H6013	0.922	0.891	0.847	0.905	0.777	0.909	0.783	0.746	0.847
coculture fibroblast: H6019	0.8889	0.87875	0.902	0.886	0.951	0.884	0.879	0.785	0.864
coculture fibroblast: H6076	0.85	0.852	0.901	0.88826	0.9336	0.95	0.955	0.794	0.8965
coculture fibroblast: H6231	0.757	0.742	0.836	0.777	0.807	0.813	0.845	0.858	0.856
coculture fibroblast: HADF	0.938	0.969	0.984	0.941	0.753	0.841	0.75	0.764	0.863
coculture fibroblast: HCFa	0.923	0.929	0.947	0.922	0.765	0.8792	0.73	0.765	0.766
coculture fibroblast: HCPF	0.787	0.786	0.825	0.792	0.817	0.821	0.843	0.844	0.848
coculture fibroblast: HHSteC	0.964	0.833	0.875	0.936	0.963	0.815	0.907	0.887	0.884
coculture fibroblast: HMF	0.844	0.84	0.903	0.888	0.909	0.92	0.822	0.918	0.917
coculture fibroblast: HPFa	0.9878	0.857	0.911	0.831	0.802	0.7208	0.883	0.817	0.902
coculture fibroblast: HUF	0.921	0.91	0.934	0.916	0.794	0.833	0.91113	0.802	0.839
coculture fibroblast: Hs5	0.859	0.867	0.892	0.87	0.886	0.865	0.883	0.878	0.875
coculture fibroblast: Hs27A	0.983	0.852	0.763	0.768	0.808	0.766	0.753	0.744	0.811
coculture fibroblast: Hs343T	0.771	0.7845	0.8096	0.875	0.87	0.852	0.893	0.909	0.887
coculture fibroblast: WS1	0.889	0.865	0.891	0.854	0.89	0.915	0.926	0.93	0.937

Values are relative to the signal before dosing, not to a vehicle control; the signal also falls without drug.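 Fibroblast labels denote human fibroblasts, mainly primary ones from uterus (C12385, HUF), lung (H6013), bone (Hs27A), adrenal (HADF) and skin (WS1), plus mammary HMF and breast cancer-associated Hs343T. Cancer cells are basal-like or mesenchymal-like triple-negative breast cancer lines. A hit is a response shift exceeding 3x replicate standard deviation. The tissue of the other fibroblasts is not given here.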
